Measurements as given in publication PMC12057046, “Elucidation of short linear motif-based interactions of the MIT and rhodanese domains of the ubiquitin-specific protease 8” (Biology Direct, 2025).
No constants are given. Whether binding was seen depends on the method and setting. Some entries that bind do so weakly or less than the wild type. Where a sequence is shown, tags or fusion partners need not be part of it.

Sequences of proteins named here, by UniProt entry; tags and fusion partners are left off. A change or cut given only in a name is not applied to a line headed by its entry.
UniProt Q3V6T2: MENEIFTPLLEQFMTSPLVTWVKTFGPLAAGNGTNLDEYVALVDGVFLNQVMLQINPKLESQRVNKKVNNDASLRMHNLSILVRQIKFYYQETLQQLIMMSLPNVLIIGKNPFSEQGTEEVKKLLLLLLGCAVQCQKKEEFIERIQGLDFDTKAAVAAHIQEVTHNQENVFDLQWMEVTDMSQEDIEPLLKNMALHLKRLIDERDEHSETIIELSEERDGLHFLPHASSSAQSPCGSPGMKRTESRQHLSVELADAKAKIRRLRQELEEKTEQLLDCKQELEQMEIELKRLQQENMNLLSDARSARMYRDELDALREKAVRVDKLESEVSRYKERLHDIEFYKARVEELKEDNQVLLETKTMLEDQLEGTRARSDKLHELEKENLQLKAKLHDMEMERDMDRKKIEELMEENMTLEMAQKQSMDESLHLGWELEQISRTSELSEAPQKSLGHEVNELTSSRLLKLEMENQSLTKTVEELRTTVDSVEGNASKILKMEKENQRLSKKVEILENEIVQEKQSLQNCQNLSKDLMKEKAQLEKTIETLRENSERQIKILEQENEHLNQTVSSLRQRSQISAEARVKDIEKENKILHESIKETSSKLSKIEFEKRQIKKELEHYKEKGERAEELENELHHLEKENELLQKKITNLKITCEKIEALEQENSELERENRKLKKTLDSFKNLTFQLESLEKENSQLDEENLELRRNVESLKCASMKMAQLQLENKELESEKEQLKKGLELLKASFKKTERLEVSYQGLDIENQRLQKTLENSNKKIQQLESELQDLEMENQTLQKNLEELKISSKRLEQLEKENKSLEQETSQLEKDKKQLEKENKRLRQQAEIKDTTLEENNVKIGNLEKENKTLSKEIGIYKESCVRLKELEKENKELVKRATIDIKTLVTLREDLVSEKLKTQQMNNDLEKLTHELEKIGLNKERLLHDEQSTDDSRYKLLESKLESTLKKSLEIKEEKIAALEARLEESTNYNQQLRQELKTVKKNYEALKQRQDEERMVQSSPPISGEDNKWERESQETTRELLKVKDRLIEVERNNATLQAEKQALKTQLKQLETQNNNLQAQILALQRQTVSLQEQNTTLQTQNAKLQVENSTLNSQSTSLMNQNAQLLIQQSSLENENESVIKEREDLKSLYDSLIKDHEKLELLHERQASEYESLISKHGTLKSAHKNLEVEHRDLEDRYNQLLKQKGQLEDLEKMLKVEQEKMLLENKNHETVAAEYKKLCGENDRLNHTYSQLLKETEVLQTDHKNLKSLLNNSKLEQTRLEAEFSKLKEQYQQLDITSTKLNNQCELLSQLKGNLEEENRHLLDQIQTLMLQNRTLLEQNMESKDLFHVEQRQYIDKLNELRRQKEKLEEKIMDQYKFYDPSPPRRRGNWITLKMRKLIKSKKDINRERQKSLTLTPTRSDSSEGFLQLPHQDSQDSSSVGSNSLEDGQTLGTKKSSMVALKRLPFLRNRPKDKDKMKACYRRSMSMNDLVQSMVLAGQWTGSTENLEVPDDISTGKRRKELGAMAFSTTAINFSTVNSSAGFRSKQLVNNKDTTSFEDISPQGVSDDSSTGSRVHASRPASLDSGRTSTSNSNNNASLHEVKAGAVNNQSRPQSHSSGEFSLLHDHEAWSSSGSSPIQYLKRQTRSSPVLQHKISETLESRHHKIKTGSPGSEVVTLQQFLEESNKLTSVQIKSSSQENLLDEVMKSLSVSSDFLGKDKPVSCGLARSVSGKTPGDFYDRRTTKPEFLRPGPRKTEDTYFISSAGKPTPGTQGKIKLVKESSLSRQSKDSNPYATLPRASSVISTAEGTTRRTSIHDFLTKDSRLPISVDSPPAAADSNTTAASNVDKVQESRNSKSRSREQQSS

Molecular target: T1, Girdin 1192-1207 peptide, cellulose-bound (SPOT array) (human) (UniProt Q3V6T2)
T1 sequence (peptide): EVEHRDLEDRYNQLLK
Assay: peptide or protein array; SPOT array, cellulose-bound peptides; GST-tagged MIT domain 100 µM in 5% skim milk in TBST overnight at 4 °C; detected with HRP-conjugated anti-GST antibody; both purified

binding: binds
B1: GST-tagged USP8 MIT domain (1-142) (domain or fragment, UniProt P40818 1-142)
chain: MPAVASVPKELYLSSSLKDLNKKTEVKPEKISTKSYVHSALKIFKTAEECRLDRDEERAYVLYMKYVTVYNLIKKRPDFKQQQDYFHSILGPGNIKKAVEEAERLSESLKLRYEEAEVRKKLEEKDRQEEAQRLQQKRQETG
